Measurements reported in publication PMC11066113.

By UniProt entry, the sequences of proteins in these tests, tags left out. Where a name states a change or a piece, a line headed by the entry shows the natural chain unless it says otherwise. Residues count along the entry.
UniProt O60602, residues 21-639: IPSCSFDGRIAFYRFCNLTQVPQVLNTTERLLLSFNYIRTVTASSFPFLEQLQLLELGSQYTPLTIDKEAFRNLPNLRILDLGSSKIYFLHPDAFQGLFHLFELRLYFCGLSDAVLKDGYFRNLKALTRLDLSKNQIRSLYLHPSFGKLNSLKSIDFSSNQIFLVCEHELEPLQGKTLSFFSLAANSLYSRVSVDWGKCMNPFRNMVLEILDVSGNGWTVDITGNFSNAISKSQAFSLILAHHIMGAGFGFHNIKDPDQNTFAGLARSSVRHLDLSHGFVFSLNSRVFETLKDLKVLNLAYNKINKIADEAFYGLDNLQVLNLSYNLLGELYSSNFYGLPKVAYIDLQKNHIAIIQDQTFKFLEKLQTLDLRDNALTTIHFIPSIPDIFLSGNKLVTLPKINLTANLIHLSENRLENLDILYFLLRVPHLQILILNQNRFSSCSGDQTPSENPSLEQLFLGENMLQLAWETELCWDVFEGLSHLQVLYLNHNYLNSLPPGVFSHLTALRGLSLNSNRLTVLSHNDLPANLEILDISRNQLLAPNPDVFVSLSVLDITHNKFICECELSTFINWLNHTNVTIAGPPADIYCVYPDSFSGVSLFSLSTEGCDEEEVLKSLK
UniProt Q9QUK6, residues 26-638: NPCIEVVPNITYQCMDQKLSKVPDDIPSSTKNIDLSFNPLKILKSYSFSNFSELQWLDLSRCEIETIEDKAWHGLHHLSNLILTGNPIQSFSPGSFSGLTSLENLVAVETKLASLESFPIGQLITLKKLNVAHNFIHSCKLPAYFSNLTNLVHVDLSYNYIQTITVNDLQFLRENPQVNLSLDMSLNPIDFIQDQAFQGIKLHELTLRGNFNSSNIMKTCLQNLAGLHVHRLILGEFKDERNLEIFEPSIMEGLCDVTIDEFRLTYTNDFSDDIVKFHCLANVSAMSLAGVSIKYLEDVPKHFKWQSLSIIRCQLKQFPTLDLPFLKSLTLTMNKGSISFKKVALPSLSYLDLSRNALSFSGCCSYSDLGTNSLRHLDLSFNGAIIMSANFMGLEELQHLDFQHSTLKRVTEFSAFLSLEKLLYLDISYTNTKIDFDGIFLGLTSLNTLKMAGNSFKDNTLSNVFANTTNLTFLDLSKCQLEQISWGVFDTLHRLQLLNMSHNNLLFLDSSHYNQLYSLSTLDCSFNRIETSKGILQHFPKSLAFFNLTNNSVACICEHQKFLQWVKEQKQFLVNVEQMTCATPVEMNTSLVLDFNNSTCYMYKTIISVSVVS
UniProt Q172F2: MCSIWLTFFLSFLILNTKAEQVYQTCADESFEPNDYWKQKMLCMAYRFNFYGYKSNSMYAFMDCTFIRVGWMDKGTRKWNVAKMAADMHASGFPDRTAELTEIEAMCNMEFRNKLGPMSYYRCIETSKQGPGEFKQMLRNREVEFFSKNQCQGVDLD

What was measured:
Assay in all cases: co-IP; lysate of HEK293T cells transfected with a Myc-tagged TLR ECD incubated with 80 ng purified V5-tagged AaNRP at 4 °C, precipitated with anti-Myc tag antibody (magnetic beads), five washes with IP lysis buffer, blots for V5 and Myc; only the binder purified
[1] = biological target: human TLR5 extracellular domain (human) (UniProt O60602)
[2] = biological target: murine Toll-like receptor 4 extracellular domain (mouse) (UniProt Q9QUK6)
[3] = biological target: T1, murine Toll-like receptor 12 extracellular domain (mouse) (UniProt Q6QNU9)
T1 sequence: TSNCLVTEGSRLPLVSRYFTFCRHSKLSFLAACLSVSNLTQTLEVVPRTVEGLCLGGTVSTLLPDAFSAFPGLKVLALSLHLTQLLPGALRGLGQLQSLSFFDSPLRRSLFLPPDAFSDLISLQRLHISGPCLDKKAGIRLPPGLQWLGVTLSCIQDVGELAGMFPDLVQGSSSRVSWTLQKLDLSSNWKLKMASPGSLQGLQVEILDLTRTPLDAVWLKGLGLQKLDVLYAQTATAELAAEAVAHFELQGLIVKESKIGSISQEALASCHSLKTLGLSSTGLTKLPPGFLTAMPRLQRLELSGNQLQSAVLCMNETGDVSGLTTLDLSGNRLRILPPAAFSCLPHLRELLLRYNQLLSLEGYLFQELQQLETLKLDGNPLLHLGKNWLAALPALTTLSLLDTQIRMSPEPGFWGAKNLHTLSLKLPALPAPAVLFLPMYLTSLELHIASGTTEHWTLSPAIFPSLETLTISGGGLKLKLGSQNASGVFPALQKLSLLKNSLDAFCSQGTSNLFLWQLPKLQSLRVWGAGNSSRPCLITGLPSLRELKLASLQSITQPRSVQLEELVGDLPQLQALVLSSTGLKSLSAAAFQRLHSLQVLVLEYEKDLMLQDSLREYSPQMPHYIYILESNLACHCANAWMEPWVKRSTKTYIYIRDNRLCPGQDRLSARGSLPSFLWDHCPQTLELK

[4] = biological target: T2, human plasma membrane TLR1 extracellular domain (human) (UniProt Q15399)
T2 sequence: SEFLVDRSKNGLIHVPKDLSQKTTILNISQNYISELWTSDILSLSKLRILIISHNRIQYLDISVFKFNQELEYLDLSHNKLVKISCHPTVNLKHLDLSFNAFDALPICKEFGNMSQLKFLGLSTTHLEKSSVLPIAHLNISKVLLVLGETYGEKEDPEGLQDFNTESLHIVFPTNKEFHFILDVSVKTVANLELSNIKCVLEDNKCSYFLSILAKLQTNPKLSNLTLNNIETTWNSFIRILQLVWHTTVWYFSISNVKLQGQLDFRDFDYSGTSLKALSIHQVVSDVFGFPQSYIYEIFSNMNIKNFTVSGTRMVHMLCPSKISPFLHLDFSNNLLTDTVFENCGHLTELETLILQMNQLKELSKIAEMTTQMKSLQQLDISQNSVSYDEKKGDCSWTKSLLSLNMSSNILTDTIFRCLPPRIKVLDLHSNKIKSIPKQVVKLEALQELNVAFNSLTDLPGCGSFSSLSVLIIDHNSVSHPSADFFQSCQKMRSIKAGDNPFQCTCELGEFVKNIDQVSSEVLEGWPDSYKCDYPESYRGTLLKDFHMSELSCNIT

[5] = biological target: T3, human TLR10 extracellular domain (human) (UniProt Q9BXR5)
T3 sequence: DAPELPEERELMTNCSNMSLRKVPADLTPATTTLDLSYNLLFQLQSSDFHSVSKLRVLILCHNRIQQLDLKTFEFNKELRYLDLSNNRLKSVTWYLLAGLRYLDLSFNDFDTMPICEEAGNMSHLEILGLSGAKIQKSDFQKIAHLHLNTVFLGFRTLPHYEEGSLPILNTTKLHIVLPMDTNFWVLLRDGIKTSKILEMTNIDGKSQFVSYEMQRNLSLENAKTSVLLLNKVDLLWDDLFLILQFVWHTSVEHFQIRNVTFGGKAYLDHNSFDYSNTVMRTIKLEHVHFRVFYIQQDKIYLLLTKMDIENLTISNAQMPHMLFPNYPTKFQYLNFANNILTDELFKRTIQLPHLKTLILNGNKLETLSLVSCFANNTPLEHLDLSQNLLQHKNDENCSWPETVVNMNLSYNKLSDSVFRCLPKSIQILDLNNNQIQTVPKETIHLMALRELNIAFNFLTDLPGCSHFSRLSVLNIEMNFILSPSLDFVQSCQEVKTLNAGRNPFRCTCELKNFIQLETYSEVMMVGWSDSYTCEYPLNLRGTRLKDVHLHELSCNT

A. aegypti Neutrophil Recruitment Protein (AaNRP) (from UniProt Q172F2)
binding [1]: no binding (tested: 80 ng of purified AaNRP)
binding [2]: binds
binding [3]: no binding (tested: 80 ng of purified AaNRP)
binding [4]: binds
binding [5]: no binding (tested: 80 ng of purified AaNRP)

These are yes or no findings as the source states them, for the method shown. In cells and extracts the contact can be indirect. For some assays here: Binding can be weak; no strength is given.
